Data from doi:10.1101/2024.06.01.596940 (bioRxiv, 2024).
No constants are given. Whether binding was seen depends on the method and setting. For part of these data: Binding seen in cells or lysates may run through a third protein. Some binding calls cover weakened binding; strength is not graded here. For part of these data: Tags and fused reporters may be left off the sequences shown.

Sequences of proteins named here, by UniProt entry; tags and fusion partners are left off. A change or cut given only in a name is not applied to a line headed by its entry. Residues count along the entry.
UniProt O15218: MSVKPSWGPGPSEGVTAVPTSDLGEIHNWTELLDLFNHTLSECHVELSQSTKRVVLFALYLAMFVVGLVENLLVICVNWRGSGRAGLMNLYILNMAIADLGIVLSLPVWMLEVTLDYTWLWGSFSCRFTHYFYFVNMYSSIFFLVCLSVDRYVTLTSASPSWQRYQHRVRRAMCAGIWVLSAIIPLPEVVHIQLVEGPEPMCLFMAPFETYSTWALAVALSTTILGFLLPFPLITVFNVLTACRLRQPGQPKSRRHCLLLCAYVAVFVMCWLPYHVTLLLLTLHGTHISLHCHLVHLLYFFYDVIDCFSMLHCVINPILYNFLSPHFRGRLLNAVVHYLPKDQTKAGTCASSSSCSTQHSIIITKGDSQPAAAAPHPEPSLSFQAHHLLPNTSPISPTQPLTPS
UniProt P19875, residues 35-107: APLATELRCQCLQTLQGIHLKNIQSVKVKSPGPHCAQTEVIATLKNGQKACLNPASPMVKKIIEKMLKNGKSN
UniProt P78556, residues 27-96: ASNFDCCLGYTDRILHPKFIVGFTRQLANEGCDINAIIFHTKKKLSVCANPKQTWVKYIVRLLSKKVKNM
UniProt P02778, residues 22-98: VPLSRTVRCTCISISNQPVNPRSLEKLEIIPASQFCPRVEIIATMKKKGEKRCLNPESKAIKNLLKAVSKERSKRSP
UniProt P40224, residues 22-93: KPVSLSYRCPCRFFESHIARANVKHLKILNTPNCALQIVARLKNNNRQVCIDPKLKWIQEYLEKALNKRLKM
UniProt P19876, residues 35-107: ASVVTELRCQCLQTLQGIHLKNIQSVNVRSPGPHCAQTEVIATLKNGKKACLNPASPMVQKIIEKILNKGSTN
UniProt Q9Y258, residues 24-94: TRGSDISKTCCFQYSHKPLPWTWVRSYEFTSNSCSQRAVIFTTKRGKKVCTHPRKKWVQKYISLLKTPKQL
UniProt Q9ULZ1: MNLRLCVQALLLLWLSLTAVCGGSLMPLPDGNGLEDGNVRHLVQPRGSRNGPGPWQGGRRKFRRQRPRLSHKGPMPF
UniProt O00585, residues 24-134: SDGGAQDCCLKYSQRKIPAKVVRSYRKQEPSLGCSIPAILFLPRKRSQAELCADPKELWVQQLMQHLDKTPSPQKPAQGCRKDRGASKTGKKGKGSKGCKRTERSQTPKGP
UniProt Q99731, residues 22-98: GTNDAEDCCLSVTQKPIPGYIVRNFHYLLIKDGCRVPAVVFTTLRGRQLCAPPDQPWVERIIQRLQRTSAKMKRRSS
UniProt P51671, residues 24-97: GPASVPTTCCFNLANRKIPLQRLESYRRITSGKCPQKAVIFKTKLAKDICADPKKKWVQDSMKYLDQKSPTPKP

B1: human XCL1 (ligand, UniProt P47992 22-114)
chain: VGSEVSDKRTCVSLTTQRLPVSRIKTYTITEGSLRAVIFITKRGLKVCADPQATWVRDVVRSMDRKSNTRNNMIQTKPTGTQQSTNTAVTLTG
B2: human CXCL11 (ligand, UniProt O14625 22-94)
chain: FPMFKRGRCLCIGPGVKAVKVADIEKASIMYPSNNCDKIEVIITLKENKGQRCLNPKSKQARLIIKKVERKNF
B3: human CXCL9 (ligand, UniProt Q07325 23-125)
chain: TPVVRKGRCSCISTNQGTIHLQSLKDLKQFAPSPSCEKIEIIATLKNGVQTCLNPDSADVKELIKKWEKQVSQKKKQKNGKKHQKKKVLKVRKSQRSRQKKTT
B4: human CCL24 (ligand, UniProt O00175 27-119)
chain: VVIPSPCCMFFVSKRIPENRVVSYQLSSRSTCLKAGVIFTTKKGQQFCGDPKQEWVQRYMKNLDAKQKKASPRARAVAVKGPVQRYPGNQTTC
B5: human CCL1 (ligand, UniProt P22362 24-96)
chain: KSMQVPFSRCCFSFAEQEIPLRAILCYRNTSSICSNEGLIFKLKRGKEACALDTVGWVQRHRKMLRHCPSKRK
B6: human CCL28 (ligand, UniProt Q9NRJ3 20-127)
chain: SEAILPIASSCCTEVSHHISRRLLERVNMCRIQRADGDCDLAAVILHVKRRRICVSPHNHTVKQWMKVQAAKKNGKGNVCHRKKHHGKRNSNRAHQGKHETYGHKTPY
B7: human GPR15L (ligand)
chain: KRRPAKAWSGRRTRLCCHRVPSPNSTNLKGHHVRLCKPCKLEPEPRLWVVPGALPQV
B8: human CXCL17 (ligand)
chain: SSLNPGVARGHRDRGQASRRWLQEGGQECECKDWFLRAPRRKFMTVSGLPKKQCPCDHFKGNVKKTRHQRHHRKPNKHSRACQQFLKQCQLRSFALPL
B9: human CXCL14 (ligand, UniProt O95715 35-111)
chain: SKCKCSRKGPKIRYSDVKKLEMKPKYPHCEEKMVIITTKSVSRYRGQEHCLHPKLQSTKRFIKWYNAWNEKRRVYEE
B10: human CXCL16 (ligand, UniProt Q9H2A7)
chain: NEGSVTGSCYCGKRISSDSPPSVQFMNRLRKHLRAYHRCLYYTRFQLLSWSVCGGNKDPWVQELMSCLDLKECGHAYSGIVAHQKHLLPTSPPISQASEGASSDIHTPAQMLLSTLQSTQRPTLPVGSLSSDKELTRPNETTIHTAGHSLAAGPEAGENQKQPEKNAGPTARTSAT

Columns and labels:
[1] = molecular target: human GPR182 (untagged), stably expressed on HEK293T cells (human) (UniProt O15218); experiment: flow cytometry on cells
[2] = molecular target: T1, mouse GPR182 (untagged), stably expressed on HEK293T cells (mouse) (UniProt P43142); experiment: flow cytometry on cells
T1 sequence: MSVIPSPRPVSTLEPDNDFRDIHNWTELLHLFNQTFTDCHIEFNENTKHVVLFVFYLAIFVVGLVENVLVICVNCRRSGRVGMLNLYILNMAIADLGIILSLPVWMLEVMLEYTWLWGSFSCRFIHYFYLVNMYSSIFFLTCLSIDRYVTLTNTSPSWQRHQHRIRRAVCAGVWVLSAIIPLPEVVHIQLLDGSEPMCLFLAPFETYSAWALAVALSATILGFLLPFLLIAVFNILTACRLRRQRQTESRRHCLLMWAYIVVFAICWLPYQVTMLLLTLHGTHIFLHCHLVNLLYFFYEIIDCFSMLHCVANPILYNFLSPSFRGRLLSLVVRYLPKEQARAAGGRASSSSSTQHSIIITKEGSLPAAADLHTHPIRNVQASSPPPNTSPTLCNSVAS

[3] = molecular target: human GPR182 N-terminally fused to Nanoluciferase, stably expressed on HEK293T cells (human) (UniProt O15218); experiment: FRET or BRET

Row | Molecule | binding [1] | binding [2] | binding [3]
1 | human CXCL2 (from UniProt P19875 35-107) (ligand) | binds | – | –
2 | human CCL20 (from UniProt P78556 27-96) (ligand) | binds | – | –
3 | human CXCL10 (from UniProt P02778 22-98) (ligand) | binds | – | –
4 | mouse CXCL12 labelled with AZ647 (from UniProt P40224 22-93) (ligand) | – | binds | –
5 | human CXCL3 (from UniProt P19876 35-107) (ligand) | binds | – | –
6 | human CCL26 (from UniProt Q9Y258 24-94) (ligand) | binds | – | –
7 | apelin-31 (from UniProt Q9ULZ1 47-77) (peptide) | binds | – | binds
8 | apelin-36 (from UniProt Q9ULZ1 42-77) (peptide) | binds | – | binds
9 | human CCL21 (from UniProt O00585 24-134) (ligand) | binds | – | –
10 | human CCL19 labelled with AZ647 (from UniProt Q99731 22-98) (ligand) | binds | – | –
11 | human CCL11 (from UniProt P51671 24-97) (ligand) | binds | – | –
12 | apelin-28 (from UniProt Q9ULZ1 50-77) (peptide) | binds | – | binds
13 | B1 | binds | – | –
14 | B2 | binds | – | –
15 | B3 | binds | – | –
16 | B4 | binds | – | –
17 | B5 | binds | – | –
18 | B6 | binds | – | –
19 | HSDGIFTDSYSRYRKQMAVKKYLAAVLGKRYKQRVKNK (peptide, UniProt P18509) [PACAP-38] | binds | – | binds
20 | B7 | – | – | binds
21 | B8 | – | – | binds
22 | B9 | binds | – | –
23 | B10 | binds | – | –
